Data taken from the supplement of paper PMC12889115.
The other results are listed elsewhere or left out. Values are raw readings; no control value is given beside them.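 First-pass screen: polymyxin B was added at a level that permeabilizes the Salmonella outer membrane while sparing the inner membrane. DMSO wells, with and without polymyxin B, defined maximum growth. Because plates differed from one another, each plate's data were ranked separately and the compounds with the lowest OD600 were carried forward as hits.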

Test system: Salmonella enterica serovar Typhimurium SL1344
Assay: bacterial growth OD600 after 18 h with compound and polymyxin B; higher = more bacterial growth (less inhibition)
Conditions: 50 µM, Mueller-Hinton broth

SMILES	bacterial growth OD600 (polymyxin B 1 µg/mL)	bacterial growth OD600 (polymyxin B 0.75 µg/mL)
CCn1ccnc1CNCc1ccc2[nH]c3c(c2c1)CCCCC3	1.05	–
O=C(NCCCc1ccccc1)C1CC12CCN(C(=O)c1cccc(-c3ccccc3F)c1)CC2 (stereo not given)	–	0.021
CN(C)CCN(Cc1ccccc1O)CC1CCCN(Cc2ccccc2F)C1 (stereo not given)	–	0.811
CN(C(=O)c1ccccn1)C(Cc1ccccc1)C1CCN(C(=O)c2ccc3c(c2)no[n+]3[O-])CC1 (stereo not given)	–	0.799
CCOC(=O)C1(Cc2ccc(F)cc2)CCCN(C(=O)c2ccncc2)C1 (stereo not given)	–	0.758
C=CCC(=O)N1CCCC1C(=O)Nc1ccccc1-c1ccc(OC)cc1 (stereo not given)	0.901	–
COCc1ccc(C(=O)N2CCC(C(Cc3ccccc3C)N(C)C(=O)Cn3cccn3)CC2)o1 (stereo not given)	–	0.836
Cc1cc(C)n(Cc2cc(C(=O)N(C)Cc3n[nH]c4c3CCCC4)n[nH]2)n1	0.892	–
Cc1cc(C)n(-c2cccc(CN(C)C(=O)c3ccc(-n4cc(NC(=O)c5ccoc5)cn4)cc3)c2)n1	–	0.583
CCc1cc(C(=O)NC(C)c2cnc(-c3ccncc3)nc2C)n(C)n1 (stereo not given)	1.31	–
O=C(NC1CCOC1)C1CCN(c2nc(-c3ccccc3)nc3c2CCC3)CC1 (stereo not given)	–	0.822
Cc1nccn1CCCNC(=O)c1cn(Cc2c(F)cccc2F)nn1	1.22	–
O=C(CC(c1ccccc1)c1ccccc1Cl)NCc1ccon1 (stereo not given)	0.673	–
O=C(Nc1ccnn1C1CCN(CCCn2cccn2)CC1)C1CCOC1 (stereo not given)	1.27	–
CCC1CN(CC(=O)N2CCN(CC(=O)N(C)C)CC2)Cc2ccc(Cl)cc2O1 (stereo not given)	–	1.03
COCCCNC(=O)c1cnn(-c2nccc(-c3cc(OC)ccc3OC)n2)c1C1CC1	–	0.988
CCN1CCC(C(=O)Nc2ccc(-n3nc(C)cc3C)cc2)CC1	0.931	–
COCC(=O)Nc1cc(C(=O)NC2CCc3ccccc32)cc2ncn(CCc3ccccc3)c12 (stereo not given)	–	0.832
O=C(NCC[C@@H]1CCCN2CCCC[C@H]12)c1cn(Cc2ccccc2F)nn1	0.986	–
COCC(=O)Nc1cc(C(=O)NCc2cc(OC)ccc2OC)c2c(c1)nc(C1CCC1)n2C	–	0.914

Single records, from the list above. Order of values: bacterial growth OD600 (polymyxin B 1 µg/mL)	bacterial growth OD600 (polymyxin B 0.75 µg/mL)
O=C(Nc1ccnn1C1CCN(CCCn2cccn2)CC1)C1CCOC1 (stereo not given) in the list: 1.27	–
CCOC(=O)C1(Cc2ccc(F)cc2)CCCN(C(=O)c2ccncc2)C1 (stereo not given) in the list: –	0.758
